Measured values as given in the supplement of paper PMC8256030.
“And” between values parts separate entries of the source, which are not always exact repeats. Identical values can stand only once. The list shows a part of the results. Single values are uncertain here, since repeats match poorly.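 HEK293T cells were given each compound shortly before transfection with a reporter in which red mCherry is followed by the SARS-CoV-2 frameshift element and then GFP in the −1 frame, so GFP appears only after frameshifting.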

tested on: HEK293T; assay: percent viability (nuclei count) relative to control; higher = more viable cells; conditions: 10 µM; 24 h

For Nc1ncnc2c1ncn2[C@@H]1O[C@H](CO)[C@@H](O)[C@H]1O, which percent viability is on record?
The percent viability was 182%.

With CCOC(=O)n1ccn(C)c1=S [carbimazole] as the compound, how does the percent viability read?
Its percent viability is 235%.

For N=C(N)C(O)c1ccc2c(c1)OCO2 (stereo not given) [olmidine], which percent viability is on record?
The percent viability was 272%.

For CCC(=O)O[C@]1(C(=O)COC(C)=O)CC[C@H]2[C@@H]3C[C@H](C)C4=CC(=O)C=C[C@]4(C)[C@H]3[C@@H](O)C[C@@]21C [methylprednisolone aceponate], which percent viability is on record?
Its percent viability is 236%.

How did the percent viability turn out when C/C(=C\C(=O)O)C1CCCCC1 [cicrotoic acid] was run?
The percent viability was 245%.

Which percent viability does the source give for NCCS(=O)(=O)O [taurine] here?
Its percent viability is 309%.

Which percent viability does the source give for N/C(=N\C(=O)c1nc(Cl)c(N)nc1N)NCc1ccccc1 [Benzamil] here?
The percent viability was 196%.

For C[C@]12CC[C@@H]3c4ccc(O)cc4CC[C@H]3[C@@H]1CC[C@@H]2OC(=O)CCC1CCCC1, which percent viability is on record?
Its percent viability is 141%.

CCC1(C)OC(=O)N(C)C1=O (stereo not given) [paramethadione] was tested. Which percent viability did it give?
The percent viability was 147%.

Which percent viability does the source give for CC1=C(C/C=C(\C)CCC[C@H](C)CCC[C@H](C)CCCC(C)C)C(=O)c2ccccc2C1=O here?
The percent viability was 88.3%.

Which percent viability does the source give for CCCC(CCC)C(=O)NCC(N)=O [valrocemide] here?
Its percent viability is 257%.

How did the percent viability turn out when NC(=O)N=Nc1ccc2ccccc2c1O [naftazone] was run?
Its percent viability is 317%.

Which percent viability does the source give for NCc1ccccc1CC(=O)N[C@@H]1C(=O)N2C(C(=O)O)=C(CSc3nnnn3CC(=O)O)CS[C@H]12 [Ceforanide] here?
Its percent viability is 264%.

Which percent viability does the source give for O=C(NCC1CCCCN1)c1cc(OCC(F)(F)F)ccc1OCC(F)(F)F (stereo not given) [flecainide] here?
Its percent viability is 226%.

With O=C(CCCCC(=O)Nc1c(I)cc(I)c(C(=O)O)c1I)Nc1c(I)cc(I)c(C(=O)O)c1I [adipiodone] as the compound, how does the percent viability read?
Its percent viability is 160%.

COC[C@H]1O[C@@H](OC2OC[C@@H]3O[C@]4(O[C@H]3[C@H]2OC(=O)C(C)C)O[C@H](C)[C@@](O)(C(C)=O)[C@@H]2OCO[C@H]24)[C@@H](OC)[C@@H](O)[C@@H]1O[C@@H]1O[C@H](C)[C@H](OC)[C@H](O[C@H]2C[C@@]3(C)OC4(C[C@@H](O)[C@H](O[C@H]5C[C@@H](O)[C@H](OC(=O)c6c(C)c(Cl)c(O)c(Cl)c6OC)[C@@H](C)O5)[C@@H](C)O4)O[C@@H]3[C@@H](C)O2)[C@H]1O (stereo not given in full) [avilamycin] was tested. Which percent viability did it give?
The percent viability was 292%.

Which percent viability does the source give for COc1ccc(-n2c(C)c[nH]c2=O)cc1 [metazamide] here?
Its percent viability is 202%.

Cc1cc(CC(C)CC(C)(C)C)n(O)c(=O)c1 (stereo not given) [piroctone] was tested. Which percent viability did it give?
Its percent viability is 33.4%.

Nc1ncnc2nc[nH]c12 [Leuco-4] was tested. Which percent viability did it give?
Its percent viability is 70.7%.

For CC1(C)SCCN(S(=O)(=O)c2ccc(Oc3ccncc3)cc2)[C@H]1C(=O)NO [prinomastat], which percent viability is on record?
Its percent viability is 342%.

For O=C(O)COCCN1CCN(C(c2ccccc2)c2ccc(Cl)cc2)CC1 (stereo not given) [cetirizine], which percent viability is on record?
Its percent viability is 130% and 235% and 298%.

With C=CCOC(Cn1ccnc1)c1ccc(Cl)cc1Cl (stereo not given) [enilconazole] as the compound, how does the percent viability read?
The percent viability was 94.4%.

With Fc1ccc(C(c2ccc(F)cc2)N2CCN(C/C=C/c3ccccc3)CC2)cc1 [flunarizine] as the compound, how does the percent viability read?
Its percent viability is 116% and 269%.

How did the percent viability turn out when COc1cc(Cc2cnc(N)nc2N)cc(OC)c1Br [brodimoprim] was run?
The percent viability was 374%.

NC(=O)N/N=C/c1ccc([N+](=O)[O-])o1 [Nitrofural] was tested. Which percent viability did it give?
Its percent viability is 263%.

Which percent viability does the source give for CCC(C)OC(=O)N1CCCCC1CCO (stereo not given) [icaridin] here?
Its percent viability is 176%.

How did the percent viability turn out when CCN(CC)CCCC(C)Nc1ccnc2cc(Cl)ccc12 (stereo not given) was run?
Its percent viability is 221%.

How did the percent viability turn out when CCCCCCNC(=O)n1cc(F)c(=O)[nH]c1=O [carmofur] was run?
The percent viability was 322%.

OC[C@@H](O)[C@@H](O[C@@H]1O[C@H](CO)[C@H](O)[C@H](O)[C@H]1O)[C@H](O)[C@@H](O)CO [lactitol] was tested. Which percent viability did it give?
Its percent viability is 55.8%.

For c1ccc2c(SC3=NCCN3)c[nH]c2c1 [tinazoline], which percent viability is on record?
Its percent viability is 269%.

For CCCNC(C)C(=O)Nc1c(C)csc1C(=O)OC (stereo not given) [Articaine], which percent viability is on record?
Its percent viability is 302%.

With c1ccc(CN(CCN2CCCC2)c2ccccc2)cc1 [histapyrrodine] as the compound, how does the percent viability read?
The percent viability was 291%.

With CC(C)NC(=O)[C@H]1CCC[C@H]1Nc1nc(Nc2ccc(C(=O)N(C)C3CCN(C)CC3)cc2)ncc1Cl as the compound, how does the percent viability read?
The percent viability was 176%.

Cc1ncc([N+](=O)[O-])n1CCO [metronidazole] was tested. Which percent viability did it give?
The percent viability was 271% and 209%.

For Cn1cncc1[C@@](N)(c1ccc(Cl)cc1)c1ccc2c(c1)c(-c1cccc(Cl)c1)cc(=O)n2C [tipifarnib], which percent viability is on record?
Its percent viability is 178%.

CC1(C)S[C@@H]2[C@H](NC(=O)[C@H](N)c3ccccc3)C(=O)N2[C@H]1C(=O)O was tested. Which percent viability did it give?
Its percent viability is 192%.

For COc1ccc2c(c1)CCC(c1ccccc1)=C2c1ccc(OCCN2CCCC2)cc1 [nafoxidine], which percent viability is on record?
Its percent viability is 387%.

With CCC[C@@H]1C[C@@H](C(=O)N[C@@H]([C@H]2O[C@H](SC)[C@H](O)[C@@H](O)[C@H]2O)[C@@H](C)O)N(C)C1 [Lincocin] as the compound, how does the percent viability read?
Its percent viability is 106%.

Which percent viability does the source give for Nc1nc2[nH]cnc2c(=S)[nH]1 here?
Its percent viability is 21.5%.

CC[C@@H]1C(=O)N(C)c2cnc(Nc3ccc(C(=O)NC4CCN(C)CC4)cc3OC)nc2N1C1CCCC1 was tested. Which percent viability did it give?
The percent viability was 34.8%.
